According to US20240140895A1, “NOVEL AROMATIC MOLECULES” (XENIOPRO GmbH, priority 2018, published 2024):
The name of at least one read-out is uncertain.

Test system: HH cells (human cutaneous T-cell lymphoma cells)
Assay: Proliferation assay (alamarBlue) with HH cells
Format: cell-based
Settings: Table 35; HH cells at 20 M
Text: The antiproliferative activities of compounds falling under formula (Ia), (Tb) and (Ic), respectively, were investigated on cells or cell lines originating from a disorder of the haematopoietic system, including the myeloid cell compartment and the lymphoid cell compartment (T-cells and B-cells), the neuroendocrine system, the cervix, the breast, the ovaries, the lung, the gastrointestinal tract, and the mucosal epithelium, as well as from the skin epithelium and from the muscle. […] The readout was taken with a multi-well plate-reader in the fluorescence mode with applying a filter for excitation at 560 nm (band width 10 nm) and for emission at 590 nm (band width 10 nm). […]
The assays were performed in duplicate or more replicates of independent single experiments each containing a six-fold replicate for every condition. For every individual plate, the measured fluorescence intensity values of the conditions with compound treatment were normalized against the corresponding equally weighted arithmetic mean of the fluorescence intensity values of the six DMSO treated control wells in order to obtain the relative values to a baseline level of 1.0. […]

With `CN(Cc1cnc2nc(N)nc(N)c2n1)c1ccc(C(=O)N[C@@H](CCC(=O)O)C(=O)O)cc1` [MTREX, Methotrexate, reference compound] the “Activity Range (AVEw, weighted arithmetic mean of normalized fluorescence intensity, DMSO = 1.0)” value was 0.4 ± 0.1.
